Results reported in US20160297873A1 (VIRGINIA COMMONWEALTH UNIVERSITY, published 2016).
Results are given in words; binding and its absence hold for the method and conditions named. Some binding calls cover weakened binding; strength is not graded here.

How the values were obtained:
[1] = molecular target: T1, V2-BSA-peptide (BSA-conjugated DENND1A.V2 peptide …) (human); experiment: ELISA, antigens coated at 1 ug/ml, hybridoma supernatant
T1 sequence (peptide, conjugated to BSA (site not stated)): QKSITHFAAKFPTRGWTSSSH

[2] = molecular target: T2, V2-KLH-peptide (KLH-coupled DENND1A.V2 peptide …) (human); experiment: as above
T2 sequence (peptide, coupled to KLH (site not stated)): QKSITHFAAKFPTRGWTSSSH

[3] = molecular target: T3, DENND1A.V2 free peptide (V2-peptide, …) (human); experiment: as above
T3 sequence (peptide): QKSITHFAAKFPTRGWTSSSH

[4] = molecular target: T1, V2-BSA-peptide (BSA-conjugated DENND1A.V2 peptide …) (human); experiment: ELISA scan of hybridoma supernatants
[5] = molecular target: T2, V2-KLH-peptide (KLH-coupled DENND1A.V2 peptide …) (human); experiment: ELISA scan of hybridoma supernatants
[6] = molecular target: T3, DENND1A.V2 free peptide (V2-peptide, …) (human); experiment: ELISA scan of hybridoma supernatants
[7] = molecular target: T1, V2-BSA-peptide (BSA-conjugated DENND1A.V2 peptide …) (human); experiment: ELISA, hybridoma supernatant 1:10
[8] = molecular target: T2, V2-KLH-peptide (KLH-coupled DENND1A.V2 peptide …) (human); experiment: ELISA, hybridoma supernatant 1:10
[9] = molecular target: T3, DENND1A.V2 free peptide (V2-peptide, …) (human); experiment: ELISA, hybridoma supernatant 1:10

- binding [1]: binds
- binding [2]: binds
- binding [3]: binds
- binding [4]: binds
- binding [5]: binds
- binding [6]: binds
- binding [7]: binds
- binding [8]: binds
- binding [9]: binds
B1: mouse monoclonal DENND1A.V2 specific IgG1 P1B2 (antibody, V domains shown)
VH: QQSGADLVRSGASVKLSCTASGFSNIKDFYMHWVKQRPEQGLEWIGWIDPENGDTDYAPKFQGRATMTADTSSNTAYLQLNSLTSEDTAVYYCNAHTFLHGNSEPMDYWGQGTSVTVS
VL: IVMTQSPKFMSTSVGDRVSITCKASQDVIAAVAWYQQKPGQSPELLIYSASYRYTGVPDRFTGSGSGTDFTFTISSVQAEDLAVYYCQQHYSTPWTFGGGTKLDIKR
